The values below come from paper PMC11186355.

By UniProt entry, the sequences of proteins in these tests, tags left out.
UniProt Q9Y2I6: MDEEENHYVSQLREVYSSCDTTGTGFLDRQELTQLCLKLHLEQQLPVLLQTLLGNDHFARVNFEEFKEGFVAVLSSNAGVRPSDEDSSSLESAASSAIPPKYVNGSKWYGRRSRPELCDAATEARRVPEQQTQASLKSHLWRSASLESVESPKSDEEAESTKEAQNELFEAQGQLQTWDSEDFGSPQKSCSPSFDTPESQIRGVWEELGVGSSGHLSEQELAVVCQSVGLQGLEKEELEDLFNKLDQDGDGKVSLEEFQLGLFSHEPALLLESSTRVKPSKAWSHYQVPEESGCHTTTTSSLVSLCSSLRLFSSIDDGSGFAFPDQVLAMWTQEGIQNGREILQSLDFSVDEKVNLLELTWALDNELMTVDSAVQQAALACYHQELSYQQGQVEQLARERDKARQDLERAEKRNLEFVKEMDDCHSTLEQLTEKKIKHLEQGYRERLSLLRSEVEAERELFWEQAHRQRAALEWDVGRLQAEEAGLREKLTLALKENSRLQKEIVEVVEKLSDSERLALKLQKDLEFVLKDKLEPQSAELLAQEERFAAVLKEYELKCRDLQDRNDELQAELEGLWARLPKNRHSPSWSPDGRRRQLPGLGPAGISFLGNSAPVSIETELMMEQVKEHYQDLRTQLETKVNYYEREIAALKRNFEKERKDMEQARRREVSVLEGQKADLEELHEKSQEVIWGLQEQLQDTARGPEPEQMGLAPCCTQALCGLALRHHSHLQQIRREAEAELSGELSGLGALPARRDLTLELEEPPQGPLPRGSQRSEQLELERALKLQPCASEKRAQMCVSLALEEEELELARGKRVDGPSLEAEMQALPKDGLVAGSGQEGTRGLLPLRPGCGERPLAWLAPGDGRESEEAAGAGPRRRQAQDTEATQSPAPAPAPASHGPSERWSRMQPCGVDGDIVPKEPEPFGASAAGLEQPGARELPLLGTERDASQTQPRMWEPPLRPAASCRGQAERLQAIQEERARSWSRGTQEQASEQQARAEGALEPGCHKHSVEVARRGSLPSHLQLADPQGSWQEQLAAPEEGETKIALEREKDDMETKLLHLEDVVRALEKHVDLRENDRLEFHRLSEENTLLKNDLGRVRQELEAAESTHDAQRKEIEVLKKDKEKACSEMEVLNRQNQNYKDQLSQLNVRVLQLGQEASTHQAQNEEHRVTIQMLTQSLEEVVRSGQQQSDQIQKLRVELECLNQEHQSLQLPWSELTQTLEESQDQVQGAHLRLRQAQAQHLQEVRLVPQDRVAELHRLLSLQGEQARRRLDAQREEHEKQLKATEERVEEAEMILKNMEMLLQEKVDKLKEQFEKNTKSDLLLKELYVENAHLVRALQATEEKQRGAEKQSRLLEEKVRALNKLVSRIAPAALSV
UniProt O94973: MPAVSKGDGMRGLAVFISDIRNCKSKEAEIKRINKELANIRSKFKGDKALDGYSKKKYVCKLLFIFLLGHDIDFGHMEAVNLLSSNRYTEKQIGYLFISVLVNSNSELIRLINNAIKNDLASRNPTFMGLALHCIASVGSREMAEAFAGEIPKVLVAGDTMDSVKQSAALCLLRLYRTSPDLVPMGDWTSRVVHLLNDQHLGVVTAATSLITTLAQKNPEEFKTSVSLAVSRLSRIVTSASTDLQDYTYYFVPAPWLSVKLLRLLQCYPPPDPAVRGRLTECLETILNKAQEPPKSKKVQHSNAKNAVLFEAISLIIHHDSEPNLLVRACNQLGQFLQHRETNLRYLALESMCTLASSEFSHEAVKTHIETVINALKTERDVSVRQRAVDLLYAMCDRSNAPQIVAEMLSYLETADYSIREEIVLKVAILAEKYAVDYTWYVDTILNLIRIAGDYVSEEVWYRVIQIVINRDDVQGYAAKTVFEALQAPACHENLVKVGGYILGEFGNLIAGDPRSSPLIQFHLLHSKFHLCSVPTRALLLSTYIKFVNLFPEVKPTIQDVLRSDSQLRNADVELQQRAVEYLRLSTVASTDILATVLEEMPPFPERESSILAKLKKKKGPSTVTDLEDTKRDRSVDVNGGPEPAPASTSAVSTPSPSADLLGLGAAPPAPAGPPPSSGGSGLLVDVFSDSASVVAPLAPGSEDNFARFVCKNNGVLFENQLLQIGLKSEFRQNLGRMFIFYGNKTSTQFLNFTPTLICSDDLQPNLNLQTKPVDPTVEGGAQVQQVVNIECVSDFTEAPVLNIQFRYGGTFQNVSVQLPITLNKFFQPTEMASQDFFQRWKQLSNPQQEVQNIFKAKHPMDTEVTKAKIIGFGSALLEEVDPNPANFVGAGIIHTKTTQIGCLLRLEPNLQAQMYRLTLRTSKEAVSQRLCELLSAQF

The test addresses T1, SEC31A-TurboID-V5 (UniProt O94979).
T1 sequence: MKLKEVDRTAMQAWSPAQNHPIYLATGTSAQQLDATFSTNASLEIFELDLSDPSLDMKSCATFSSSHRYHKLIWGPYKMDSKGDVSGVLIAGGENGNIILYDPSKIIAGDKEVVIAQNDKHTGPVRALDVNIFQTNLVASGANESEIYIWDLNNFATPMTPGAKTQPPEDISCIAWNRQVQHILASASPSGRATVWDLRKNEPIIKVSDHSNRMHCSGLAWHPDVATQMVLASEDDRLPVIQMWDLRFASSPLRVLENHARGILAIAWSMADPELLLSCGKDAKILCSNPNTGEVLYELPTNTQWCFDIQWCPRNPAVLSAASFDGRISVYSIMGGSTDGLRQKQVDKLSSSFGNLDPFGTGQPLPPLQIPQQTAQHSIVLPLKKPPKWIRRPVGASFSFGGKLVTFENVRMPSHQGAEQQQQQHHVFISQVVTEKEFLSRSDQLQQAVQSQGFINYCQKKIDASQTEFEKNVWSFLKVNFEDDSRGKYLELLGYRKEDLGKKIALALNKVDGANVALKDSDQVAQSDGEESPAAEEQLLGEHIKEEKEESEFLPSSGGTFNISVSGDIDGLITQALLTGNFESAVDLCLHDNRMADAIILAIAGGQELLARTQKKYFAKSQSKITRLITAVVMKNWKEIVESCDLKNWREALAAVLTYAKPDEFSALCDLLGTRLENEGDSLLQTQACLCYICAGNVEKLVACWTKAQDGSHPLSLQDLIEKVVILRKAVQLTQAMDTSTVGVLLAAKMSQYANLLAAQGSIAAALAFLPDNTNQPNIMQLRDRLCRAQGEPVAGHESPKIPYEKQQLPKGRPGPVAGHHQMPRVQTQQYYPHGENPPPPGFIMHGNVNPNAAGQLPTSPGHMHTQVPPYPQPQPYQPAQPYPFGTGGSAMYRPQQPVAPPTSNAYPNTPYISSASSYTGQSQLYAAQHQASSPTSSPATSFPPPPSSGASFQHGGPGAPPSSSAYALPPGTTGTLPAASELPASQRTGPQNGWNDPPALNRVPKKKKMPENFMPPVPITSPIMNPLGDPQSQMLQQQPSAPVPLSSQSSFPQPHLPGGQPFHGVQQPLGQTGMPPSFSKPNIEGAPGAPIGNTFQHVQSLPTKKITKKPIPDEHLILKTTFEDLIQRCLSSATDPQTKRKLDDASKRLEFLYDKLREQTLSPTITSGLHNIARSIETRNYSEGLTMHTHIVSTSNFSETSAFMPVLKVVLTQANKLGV
The test is described as follows: proximity labelling; SEC31A-TurboID-V5 in HeLa cells, 50 μM biotin for 10 min against no biotin; streptavidin magnetic beads, label-free LC-MS/MS; FC≥4 and p<0.05, n=3.

Results are given in words; binding and its absence hold for the method and conditions named. In cells and extracts the contact can be indirect. These calls come from enrichment with a bait or labelling near it, and not all partners need be listed. Tags and fused reporters may be left off the sequences shown.

On to “Ninein-like protein (Nlp) (from UniProt Q9Y2I6 1-1382)”, for which the binding entry is “binds”.
AP2A2 (from UniProt O94973 1-939): the binding result is listed as “binds”.
